Reference: PubChem BioAssay AID1159578 (Peter MacCallum Cancer Centre, 2015)

Purpose: 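Genome-wide hunt for genes controlling movement of lymphatic endothelial cells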 (primary screen)
System: human lymphatic endothelial cells
Reagents: siRNA pool against human genes, 40 nM
Duration: 48 h after transfection
Read-out: 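High-content imaging of dye-stained cells in a scratch assay measures filled wound area and nuclei per well; duplicate means given as ratio to mock and robust z-score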
Reading the numbers: migration robust z-score: higher = faster migration into the scratch; nuclei per well: higher = more cells in the well
Call rule: 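Migration changed when robust z exceeds 2 or falls below -2 and mean nuclei number is at least 3300; otherwise not called changed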
Meaning of the calls: active = migration changed; inactive = no migration change, or too few cells
In all, the deposit lists about 18,000 reagents; below is a part drawn at random. About 1,030 of all reagents (5.7%) count as active. 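Inactive calls also include pools with fewer than 3300 nuclei, whose migration was not assessed.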 The raw values are shown without normalisation. Not all columns of the deposit are shown.

SLC24A1 gave migration robust z-score 0.76; migration class with cell-count check migration z between -2 and 2; enough cells; nuclei per well, duplicate mean 5918; inactive.
After knock-down of SPIB (Spi-B transcription factor), the screen gave migration robust z-score 1.14; migration class with cell-count check migration z between -2 and 2; enough cells; nuclei per well, duplicate mean 5649; inactive.
With knock-down of MAGI3, the screen gave migration robust z-score -0.99; migration class with cell-count check migration z between -2 and 2; enough cells; nuclei per well, duplicate mean 4612; inactive.
With knock-down of ANKHD1-EIF4EBP3 (ANKHD1-EIF4EBP3 readthrough) the results were migration robust z-score -0.03; migration class with cell-count check migration z between -2 and 2; enough cells; nuclei per well, duplicate mean 5294; inactive.
With knock-down of ABCE1 (ATP binding cassette subfamily E member 1), the record shows migration robust z-score 0.03; migration class with cell-count check migration z between -2 and 2; enough cells; nuclei per well, duplicate mean 5877; inactive.
Against SEPTIN14 (septin 14), the entry reads migration robust z-score -0.06; migration class with cell-count check migration z between -2 and 2; enough cells; nuclei per well, duplicate mean 5944; inactive.
For TARP (TCR gamma alternate reading frame protein), the entry reads migration robust z-score -0.89; migration class with cell-count check migration z between -2 and 2; enough cells; nuclei per well, duplicate mean 5817; inactive.
Silencing of AKR1C1 (aldo-keto reductase family 1 member C1) gave: migration robust z-score -0.39; migration class with cell-count check migration z between -2 and 2; enough cells; nuclei per well, duplicate mean 6312; inactive.
UTS2B (urotensin 2B) gave migration robust z-score 1.63; migration class with cell-count check migration z between -2 and 2; enough cells; nuclei per well, duplicate mean 3976; inactive.
RSPH14 (radial spoke head 14 homolog) showed migration robust z-score -0.32; migration class with cell-count check migration z between -2 and 2; enough cells; nuclei per well, duplicate mean 6900; inactive.
KANK3 (KN motif and ankyrin repeat domains 3) scored migration robust z-score -0.26; migration class with cell-count check migration z between -2 and 2; enough cells; nuclei per well, duplicate mean 6633; inactive.
Against RAET1G (retinoic acid early transcript 1G), the values are migration robust z-score 0.43; migration class with cell-count check migration z between -2 and 2; enough cells; nuclei per well, duplicate mean 5792; inactive.
GLP2R (glucagon like peptide 2 receptor) gave migration robust z-score 0.7; migration class with cell-count check migration z between -2 and 2; enough cells; nuclei per well, duplicate mean 6164; inactive.
LUM (lumican) showed migration robust z-score -0.05; migration class with cell-count check migration z between -2 and 2; enough cells; nuclei per well, duplicate mean 5981; inactive.

No new results follow: 2 of the entries above.
SPIB (Spi-B transcription factor) — migration robust z-score = 1.14; migration class with cell-count check = migration z between -2 and 2; enough cells; nuclei per well, duplicate mean = 5649; activity call = inactive
MAGI3 — migration robust z-score = -0.99; migration class with cell-count check = migration z between -2 and 2; enough cells; nuclei per well, duplicate mean = 4612; activity call = inactive
